US20220073608A1
Results are given in words; binding and its absence hold for the method and conditions named. Some binding calls cover weakened binding; strength is not graded here.

Amino acid sequences for entries named in this document (tags omitted). A change or cut given only in a name is not applied to a line headed by its entry. Residues count along the entry.
UniProt O43157, residues 20-2135: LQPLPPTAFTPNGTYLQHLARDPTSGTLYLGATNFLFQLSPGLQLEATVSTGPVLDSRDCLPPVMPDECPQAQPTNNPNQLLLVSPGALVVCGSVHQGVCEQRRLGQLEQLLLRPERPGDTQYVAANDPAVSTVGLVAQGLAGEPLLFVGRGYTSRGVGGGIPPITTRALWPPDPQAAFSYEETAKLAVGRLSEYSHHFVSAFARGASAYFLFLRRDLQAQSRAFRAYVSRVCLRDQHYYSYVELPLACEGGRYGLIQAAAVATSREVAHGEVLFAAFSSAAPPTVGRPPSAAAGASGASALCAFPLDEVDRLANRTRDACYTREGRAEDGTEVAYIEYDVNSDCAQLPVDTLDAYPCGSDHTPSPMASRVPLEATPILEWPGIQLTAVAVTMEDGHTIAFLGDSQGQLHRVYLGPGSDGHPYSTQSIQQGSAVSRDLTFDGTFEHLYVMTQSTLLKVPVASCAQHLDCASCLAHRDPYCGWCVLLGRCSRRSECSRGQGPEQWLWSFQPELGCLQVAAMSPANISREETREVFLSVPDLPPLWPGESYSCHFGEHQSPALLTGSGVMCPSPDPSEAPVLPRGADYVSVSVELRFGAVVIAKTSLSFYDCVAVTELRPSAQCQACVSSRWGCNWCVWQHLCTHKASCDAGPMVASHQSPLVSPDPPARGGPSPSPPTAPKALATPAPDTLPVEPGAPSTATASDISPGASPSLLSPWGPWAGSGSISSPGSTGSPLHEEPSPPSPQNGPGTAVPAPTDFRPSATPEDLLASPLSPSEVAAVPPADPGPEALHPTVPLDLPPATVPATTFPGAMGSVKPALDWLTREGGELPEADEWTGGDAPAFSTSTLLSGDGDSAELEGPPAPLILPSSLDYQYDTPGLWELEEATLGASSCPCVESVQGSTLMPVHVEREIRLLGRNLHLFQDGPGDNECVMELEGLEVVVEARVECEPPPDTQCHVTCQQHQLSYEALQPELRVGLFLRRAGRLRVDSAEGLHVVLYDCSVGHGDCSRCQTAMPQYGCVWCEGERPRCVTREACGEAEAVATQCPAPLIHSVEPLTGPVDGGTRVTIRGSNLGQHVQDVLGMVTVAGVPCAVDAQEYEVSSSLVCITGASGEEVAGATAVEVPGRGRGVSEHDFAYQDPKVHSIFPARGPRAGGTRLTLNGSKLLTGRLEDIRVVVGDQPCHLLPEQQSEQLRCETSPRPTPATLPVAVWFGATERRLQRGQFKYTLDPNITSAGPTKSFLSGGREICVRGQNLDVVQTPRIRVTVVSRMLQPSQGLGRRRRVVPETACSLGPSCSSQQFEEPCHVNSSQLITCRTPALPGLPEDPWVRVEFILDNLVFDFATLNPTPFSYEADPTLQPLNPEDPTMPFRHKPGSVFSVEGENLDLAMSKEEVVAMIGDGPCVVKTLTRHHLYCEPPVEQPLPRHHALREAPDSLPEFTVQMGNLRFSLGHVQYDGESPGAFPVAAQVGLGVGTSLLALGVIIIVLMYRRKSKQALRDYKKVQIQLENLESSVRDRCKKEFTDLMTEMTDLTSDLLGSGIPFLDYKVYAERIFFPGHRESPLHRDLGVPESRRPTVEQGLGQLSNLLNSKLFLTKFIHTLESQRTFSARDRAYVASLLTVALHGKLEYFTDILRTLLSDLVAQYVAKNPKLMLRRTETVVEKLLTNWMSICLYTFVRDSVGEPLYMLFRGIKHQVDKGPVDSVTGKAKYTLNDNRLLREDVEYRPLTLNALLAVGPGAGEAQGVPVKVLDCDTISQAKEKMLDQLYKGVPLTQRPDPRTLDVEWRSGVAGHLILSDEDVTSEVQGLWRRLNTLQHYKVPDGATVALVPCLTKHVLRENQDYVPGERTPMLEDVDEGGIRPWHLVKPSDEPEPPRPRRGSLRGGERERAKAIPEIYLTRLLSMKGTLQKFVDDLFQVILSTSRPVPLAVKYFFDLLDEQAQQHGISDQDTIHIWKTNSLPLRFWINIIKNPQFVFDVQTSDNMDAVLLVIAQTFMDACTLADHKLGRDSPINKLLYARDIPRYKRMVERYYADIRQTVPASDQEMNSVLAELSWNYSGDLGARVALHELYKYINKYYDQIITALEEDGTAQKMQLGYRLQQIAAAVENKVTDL
UniProt Q92854: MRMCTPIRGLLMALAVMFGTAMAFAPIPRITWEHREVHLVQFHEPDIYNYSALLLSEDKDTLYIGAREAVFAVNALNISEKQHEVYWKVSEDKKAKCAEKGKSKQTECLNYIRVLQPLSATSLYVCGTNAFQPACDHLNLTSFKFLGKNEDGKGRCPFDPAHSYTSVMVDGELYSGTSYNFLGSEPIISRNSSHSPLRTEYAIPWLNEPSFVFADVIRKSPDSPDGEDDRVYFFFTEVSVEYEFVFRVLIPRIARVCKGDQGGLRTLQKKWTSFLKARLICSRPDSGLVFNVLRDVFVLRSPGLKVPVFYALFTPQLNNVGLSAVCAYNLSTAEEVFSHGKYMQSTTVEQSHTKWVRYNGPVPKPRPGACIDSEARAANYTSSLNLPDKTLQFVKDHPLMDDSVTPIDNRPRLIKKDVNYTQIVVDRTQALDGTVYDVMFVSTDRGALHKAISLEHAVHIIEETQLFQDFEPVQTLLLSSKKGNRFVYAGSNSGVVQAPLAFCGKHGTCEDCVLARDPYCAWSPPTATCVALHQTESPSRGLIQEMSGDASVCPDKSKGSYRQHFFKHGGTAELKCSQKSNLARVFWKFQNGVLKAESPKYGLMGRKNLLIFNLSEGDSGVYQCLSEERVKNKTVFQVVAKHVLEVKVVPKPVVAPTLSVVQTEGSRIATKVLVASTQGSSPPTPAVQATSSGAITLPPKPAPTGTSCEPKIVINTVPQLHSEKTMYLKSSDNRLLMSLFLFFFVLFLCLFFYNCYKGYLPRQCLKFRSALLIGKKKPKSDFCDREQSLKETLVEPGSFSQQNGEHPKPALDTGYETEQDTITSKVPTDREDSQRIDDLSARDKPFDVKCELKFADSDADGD

Biological target: human Plexin B1, full length, on 293F cells (293F hPlexin B1) (human) (UniProt O43157)
Assay: FACS, 293F hPlexin B1 cells

binding: binds
Substance: biotinylated hSEMA4D ECD-His (from UniProt Q92854 22-734) (ligand)
